This note sets out measurements from PMC7201719.

B1: EF hand-containing protein 1 (protein, UniProt Q49B65 1-238)
chain: MASEELAQKLQRRLLLEESGAEAEGDEEEAAVSAPSETGEEERSCLTASAGAELSAKLARRHDINEGAAQPRRAAVFNPYTEFKEFSRRQIKDMERMFRLYDSGRDGYIDLMELKLMMEKLGAPQTHLGLKNMIKEVDEDFDGKLSFREFLLIFHKAAAGELEEDSGLLTLAKLSEIDVSIEGVKGAKNFFEAKVQALSSASKFEAEIRAEQDERKREEEERKHRRAAFRELKSAFTQ
B2: Protein phosphatase 1 regulatory subunit 21 (protein, UniProt Q5ZL12 1-779)
chain: MAATAELQGKYQKLAQEYSKLRAQNQVLKKGVVDEQANSASLKEQLKMKDQSLRKLQQEMDSLTFRNQQLAKRVELLQDELSLSETRGKKNKKSAESSSQLSQEQKSVFNEDLQKKIEENERLHILYFEADEQHKRLEAELRTKLEVLESDAAQHQAVVDSLTRKYTDTIEKLQNDKSKLEIKSQTLEREAKDCRLRTEECQQQLKNLQAALGSRLEESLCIINEKVPFNDTRSNRYNALNVPLHNRRYQLKLRDLAGQALSFVQEIVTALLNFHTYTEQKAQIFPIDSATDTISPLNQKFSQYLHENAFYVRPLEEGMLQLFESITEDTVTVLETAVKLKAFSEHLASYLCFLRKILPYQLKSLEEECESSLCTAALKARNMELHRDMKRLTAIFEKLHTYVSLLALPSTKPEGLLRTNYSLVFTNIAASLHGSHDILKDISKHYSQKATLEQDVPTATQKLVTTNDCILSSILSLTNGVGKIASFFSNNLDHFTSSLSYGPKGGTEFISPLSAECMLQYKKKAVAYMKSLKKPCADSVPYEEALANRRVLLSSTESREGLAQQVQQSLEKIAKLEQEKEHWMLEAQLAKIKLEKENQKLKNSLSGHLAETVQERSVLSNTAEQKEETTEKSQREPIKTTSLIGMLTITTDNEKVPDVESREDLIKKHYMARIAELTSHLQLADSKSVHFHAECRALAKRLSLAEKSKESLTEELKLASQSISRLQDELMTTKRSYEDQLSMMSDHLCSMNETLTKQREEIDTLKMTSKGNSKKNKTR
B3: Lamin-B1 (protein, UniProt P14731 1-584)
chain: MAAAVAPLSPQPRGAAASAALSPTRISRLQEKEELRQLNDRLAVYIDKVRSLETENSALQRRVSEREQVCGREISGLKELFETELADARKTLDDTARERAKLQIELGKLRAEHEQVLSSYAKKDSDLNAAQVKLREFEAALNAKEAALATALGDKRSQEEELEDLRDQIAQLEVSLAAAKKELADETLQKVDLENRCQSLIEDLEFRKNVYEEEIKETRRKHETRLVEVDSGRQIEYEYKLAQALKEIREQHDAQVKLYKEELEQTYSSKLENIRQSSEMHSCTANTVREELHESRMRIETLSSHIADIQKESRAWQDRVHELEDTLSKERENYRKILAENEREVAEMRNQMQQQFSDYEQLLDVKLALDMEISAYRKLLESEEERLRLSPGPSSRVTVSRASSSRSVRTTRGKRKRIDVEESEASSSVSISHSASATGNISIEEIDVDGKFIRLKNTSEQDQPMGGWEMIRKIGDTSASYRYTSRYVLKAGQTVTIWAANAGVTASPPTDLIWKNQNSWGTGEDVKVVLKNSQGEEVAQRSTVFKTTVNEGEEEEEEGEEEILEDVIHQQGSPRKPERSCVVM
B4: Elongator complex protein 3 (protein, UniProt Q5ZHS1 1-546)
chain: MGQKRKDLSHAELMMMTIADIIKQLIEAHEQGKDVNLNKLKTKTSAKYGLSAQPRLVDIIAAVPPQHRKALVPKLKAKPIRTASGIAVVAVMCKPHRCPHINFTGNICVYCPGGPDSDFEYSTQSYTGYEPTSMRAIRARYDPYLQTRHRVEQLKQLGHSVDKVEFIVMGGTFMALPEDYRDYFIRNLHDALSGHTSNNVAEAVKYSERSLTKCVGITIETRPDYCLKRHLSDMLSYGCTRLEIGVQSVYEDVARDTNRGHTVKAVCESFHLAKDAGFKVVAHMMPDLPNMGLERDTDQFVEFFENPAFRPDGMKLYPTLVIRGTGLYELWKTGRYKSYPPSTLVDLVARILALVPPWTRVYRVQRDIPMPLVSSGVEHGNLRELALARMKDLGTQCRDVRTREVGIQEIHHKVRPYQIELIRRDYVANGGWETFLSYEDPEQDILVGLLRLRKCSEESFRPELKGGVSIVRELHVYGSVVPVSSRDPSKFQHQGFGMLLMEEAERIAKEEHGSWKIAVISGVGTRNYYRKIGYELEGPYMVKRLQ
B5: Monocarboxylate transporter 4 (protein, UniProt P57788 1-473)
chain: MGAVVVDDGPSGVKAPDGGWGWAVLFGCFIITGFSYAFPKAVSVFFKELIREFGVGYSDTAWISSILLAMLYGTGPLCSVCVNRFGCRPVMLVGGLFASMGMVIASFCTSIVQIYLTAGVITGLGLALNFQPSLIMLNRYFDKRRPLANGLSAAGSPVFLCALSPLGQILQHEYGWRGGFLILGGMLLNCCVCGALMRPLEPPKKSEATKEPAEKKAKKKLLDFSVFKDGGFVIYTLAASIMVLGLFVPPVFVVSYAKDLGYQDTKAAFLLTILGFIDIFARPICGMVAGLKWVRPRCVYLFSFAMIFNGFTDLMGSMSVDYGGLVVFCIFFGISYGMVGALQFEVLMAIVGTQKFSSAIGLVLLAEAMAVLIGPPSAGKLLDLTRRYMFVFIIAGIEVTTSALVLALGNFFCIKKKPAEPHTKEAAAEREELNKSEDKTPEDAKVDSIEVEQFLKDEPEKNGEVVTNPETCV
B6: FERM, RhoGEF and pleckstrin domain-containing protein 1 (protein, UniProt F1P065 1-1046)
chain: MGETEQRPTAGSRLGAQENAGISTLEHGQKPPLTPPGKLISIKIQMLDDTQETFEVPQRAPGKVLHDAVCNHLNLVEGDYFGLEFPDHKKMMVWLDLLKPVMKQIRRPKHVVVKFVVKFFPPDHAQLQEELTRYLFALQVKQDLAQGRLTCNDTSTALLISHIVQSEIGDFDETIDREHLAKNKYIPQQEALEDKIMEFHRKHTGQTPAESDFQLLEIARRLEMYGIRLHPAKDREGTKINLAVANTGILVFQGHTKINAFNWAKVRKLSFKRKRFLIKLRPDVNSSFQDTLEFLMASRDFCKSFWKICVEHHAFFRLFEEPKPKPKPVLFSRGSSFRFSGRTQKQVLDYVKEGGHKKVQFERKHSKIRSIRSLTAQPSEQHAEVPKQSFQSSSFAYGDDSDAAAVQSCQQGKELKASTEDTGQHKSPSLKKSPKEGRKVDGAVVSAVEEEEEAATDRMQQNRPQSQQPSTAGSLTGSPHLSELSINSQGGPSVANMSLSPNLSPDAKQSSPLISPLLNDPSCIRTEEEEEVKKKRFPTEKAYFIAKEVATTERTYLKDLEVITSWFQSAVSKEDCMPETLKNLIFSNFEPLHKFHTGFLKEIEQRLALWEGRSNAHIKGGHQRIGDVMLKNIQGMKQLTIHLWKHNEILTELENGIKNSRKLETFCRDFELQKVCYLPLNTFLLRPLHRLMHYKQIMERLCKHYPPNHVDFRDSRAALAEITEMMAQLHGNMIKMENFQKLHELKKDLIGIDNLVIPGREFIRLGSLSKLSGKGLQQRMFFLFNDILLYTSRGLTASNQFKVHGHLPLYGMTIEDSEEEWGVPHCLTLRGQQQSIIVAASTRAEIDKWIEDIQMAIDLAEKSSDPVPELLASSPPDNKSPDETTVDQESEDDLSASRTSLERQSPHRGNTTVHVCWHRNTSVSMIDFSIAVENQLSGNLLRKFKNSNGWQKLWVVFTNFCMFFYKSHQDNHPLASLPLLGYSLTIPSESENIHKDYVFKLHFKSHVYYFRAESEYTFERWMEVIRSATSSALRTRALSHREPHTY
B7: Protein phosphatase 1 regulatory (protein, UniProt Q90623 1-1004)
chain: MKMADAKQKRNEQLKRWIGSETDLEPPVVKRKKTKVKFDDGAVFLAACSSGDTEEVLRLLERGADINYANVDGLTALHQACIDDNVDMVKFLVENGANINQPDNEGWIPLHAAASCGYLDIAEYLISQGAHVGAVNSEGDTPLDIAEEEAMEELLQNEVNRQGVDIEAARKEEERIMLRDARQWLNSGHINDVRHAKSGGTALHVAAAKGYTEVLKLLIQARYDVNIKDYDGWTPLHAAAHWGKEEACRILVENLCDMEAVNKVGQTAFDVADEDILGYLEELQKKQNLLHSEKREKKSPLIESTANLDNNQTQKTFKNKETLIMEQEKNASSIESLEHEKADEEEEGKKDESSCSSEEEEDDDSESEAETDKAKTLANANTTSTQSASMTAPSVAGGQGTPTSPLKKFPTSTTKVSPKEEERKDESPASWRLGLRKTGSYGALAEITASKEAQKEKDSAGVIRSASSPRLSSSLDNKEKEKDGKGTRLAYVAPTIPRRLASTSDIDEKENRDSSASSIRSGSSYARRKWEEDVKKNSLNEGPTSLNTSYQRSGSFGRRQDDLVSSNVPSTASTVTSSAGLQKTLPASANTTTKSTTGSTSAGVQSSTSNRLWAEDSTEKEKDSVPTAVTVPVAPSVVNAAATTTAMTTATSGTVSSTSEVRERRRSYLTPVRDEESESQRKARSRQARQSRRSTQGVTLTDLQEAEKTIGRSRSTRTREQENEEKEKEEKEKQDKEKQEEKKESETKDDDYRQRYSRTVEEPYHRYRPTSTSTSTSSTSSLSTSTSSLSSSSQLNRPNSLIGITSAYSRSGTKESEREGGKKEEEKEEDKSQPKSIRERRRPREKRRSTGVSFWTQDSDENEQEHQSDSEEGTNKKETQSDSLSRYDTGSLSVSSGDRYDSAQGRSGSQSYLEDRKPYCSRLEKEDSTDFKKLYEQILAENEKLKAQLHDTNMELTDLKLQLEKTTQRQERFADRSLLEMEKRVSGKSQYLLGGKKSSRKKDI
B8: Isoleucine-tRNA ligase, mitochondrial (enzyme, UniProt Q5ZKA2 28-1000)
chain: ASEANSRRPAEESRQDSQYRDTVLLPHSRFAAQLPGRLQPDTELETQQKSGFLELYSWQRQRKAKQEFCLHDGPPYANGDPHVGHALNKILKDITNRFHMMRGYKVHYVPGWDCHGLPIELKALSEVKGAENLSPVEIRQKAKEFAERAIEKQKAAFIRWGIMADWANCYRTFDPKYEANQLRVFHKMYDKGFIYQDYKPVFWSPSAKTALAEAELEYNEQHVSRSVYMKFPLLKSPPKLASVIDGSSPASVLVWTTQPWTVPANQAVCYMPDAEYSVVKCATTGEHLILAADRVESTAAVLDTQFEVISTCKGVDLADGSCAHPTIAGRVSPLLPANHVTMTKGTGLVHTAPAHGMEDYNVASHHQLPTECLVDESGHFTEAAGPELKNKNVLEEGNEAVIKMLQAAGSLLKEEKYVHSYPYDWRTKKPMIIRASKQWFVNTANVKATAQEALKKVKIIPTSAVNRMLEMLDRRTFWCISRQRCWGVPIPVFYQKDTGESLINSETIADVIKIVEQQGTDAWWTLPIEQLLSKEAVAKAGGHNVLDYVKGQDVLDIWFDSGTSWAHVLEGAEQRADVYLEGKDQLGGWFQSSLLTSVATRKKAPYKTLVVHGFTLGEKGEKMSKSIGNVVDPDVVINGGDDHTKDPPYGADVLRWWVAESNVFTEVLIGPVVLNAARDDINKLRNTLRFMLGNMAGFNPETDSIPPSEMYIVDQYMLHLLQDYGSKVTEAYKEYDYSKVVRLLQAFCSRNLSNFYFSIIKDRLYCEEEKDPKRRSCQTVLAEALDVVVRSFAPILPHLAEEVFQHLPYKKDSEGVFRTGWINASSGWKKPGIEEAIEGACAMRDSFLGSISGKNALEYEVIIVIEPGLLFELMEALQAEESSRVSQLNEIMMASQTTLLSEIPKETPADANIVKGNFLINLEGGDIREESSYQVIALPTTKAKCPRCRRYTSDSSSTPCPRCLKVIAGKGST
B9: Succinate dehydrogenase, mitochondrial (enzyme, UniProt Q9YHT2 39-290)
chain: AQTAAAATSRIKKFSIYRWDPDKPGDKPRMQTYEVDLNKCGPMVLDALIKIKNELDSTLTFRRSCREGICGSCAMNIAGGNTLACTKKIDPDLSKTTKIYPLPHMYVVKDLVPDLSNFYAQYKSIEPYLKKKDESKQGKEQYLQSIEDRQKLDGLYECILCACCSTSCPSYWWNGDKYLGPAVLMQAYRWMIDSRDDYTEERLAQLQDPFSLYRCHTIMNCTRTCPKGLNPGKAIAEIKKMMATYKEKAAAA

These are yes or no findings as the source states them, for the method shown. Binding seen in cells or lysates may run through a third protein. A yes stands for co-enrichment or nearness to the bait. Other partners may have been found.

The test addresses IBDV VP2 protein (infectious bursal disease virus (IBDV)). Put plainly: affinity purification with mass spectrometry; lysate of DF-1 cells transfected with pcDNA-VP2 (lysis buffer 150 mM NaCl, 1% NP-40, 25 mM Tris, 5% glycerol) precipitated with the anti-VP2 monoclonal antibody 2H11 immobilised on agarose (coimmunoprecipitation crosslinking kit); 10% SDS-PAGE, silver stain; bands differing from the negative control excised and identified by mass spectrometry.
Turning to B1, the binding entry is on record as “binds”. For the molecule B2, the binding result is given as “binds”. As to B3, the binding entry is on record as “binds”.

Turning to B4, the binding entry is “binds”. For B5 the value was “binds”; for B6, “binds”. As to B7, the binding result is “binds”. With B8, the binding entry was “binds”. On to B9, for which the binding result is listed as “binds”.
